The target in assay [1] is cytoskeleton-linking membrane protein 63 (CLIMP-63), endogenous (human (endogenous in HeLa and Rpe-1)) (UniProt Q07065). The experiment in a line: co-IP; endogenous CLIMP-63 and overexpressed APT2-FLAG WT or S122A in Rpe-1 cells; lysis buffer with 0.5% NP40, Western blot. Background: In western blotting, separated proteins are transferred to a membrane and probed.
For assay [2], the target named is myc-ZDHHC2 (UniProt Q9UIJ5). Description: co-IP; co-overexpression of CLIMP-63 with ZDHHC2 or ZDHHC6; lysis buffer with 0.5% NP40, immunoprecipitation overnight at 4 °C, Western blot.
Assay [3] has as its target T1, myc-ZDHHC6 (UniProt Q9H6R6).
T1 sequence: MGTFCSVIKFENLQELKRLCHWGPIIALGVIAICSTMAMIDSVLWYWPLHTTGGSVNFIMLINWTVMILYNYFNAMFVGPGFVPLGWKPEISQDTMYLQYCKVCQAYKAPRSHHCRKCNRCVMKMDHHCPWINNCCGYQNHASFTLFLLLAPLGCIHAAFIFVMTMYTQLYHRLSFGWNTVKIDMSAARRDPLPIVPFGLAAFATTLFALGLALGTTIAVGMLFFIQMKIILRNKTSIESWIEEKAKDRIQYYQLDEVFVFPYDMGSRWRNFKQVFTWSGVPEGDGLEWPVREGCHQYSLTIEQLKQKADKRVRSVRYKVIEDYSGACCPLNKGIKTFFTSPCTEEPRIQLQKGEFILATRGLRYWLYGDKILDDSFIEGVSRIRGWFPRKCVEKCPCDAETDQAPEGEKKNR
The assay is described as above.

Sequences of proteins named here, by UniProt entry; tags and fusion partners are left off. A change or cut given only in a name is not applied to a line headed by its entry. A line that says so, or that is headed by a name, gives the form on record, which may keep a tag or linker.
UniProt Q07065: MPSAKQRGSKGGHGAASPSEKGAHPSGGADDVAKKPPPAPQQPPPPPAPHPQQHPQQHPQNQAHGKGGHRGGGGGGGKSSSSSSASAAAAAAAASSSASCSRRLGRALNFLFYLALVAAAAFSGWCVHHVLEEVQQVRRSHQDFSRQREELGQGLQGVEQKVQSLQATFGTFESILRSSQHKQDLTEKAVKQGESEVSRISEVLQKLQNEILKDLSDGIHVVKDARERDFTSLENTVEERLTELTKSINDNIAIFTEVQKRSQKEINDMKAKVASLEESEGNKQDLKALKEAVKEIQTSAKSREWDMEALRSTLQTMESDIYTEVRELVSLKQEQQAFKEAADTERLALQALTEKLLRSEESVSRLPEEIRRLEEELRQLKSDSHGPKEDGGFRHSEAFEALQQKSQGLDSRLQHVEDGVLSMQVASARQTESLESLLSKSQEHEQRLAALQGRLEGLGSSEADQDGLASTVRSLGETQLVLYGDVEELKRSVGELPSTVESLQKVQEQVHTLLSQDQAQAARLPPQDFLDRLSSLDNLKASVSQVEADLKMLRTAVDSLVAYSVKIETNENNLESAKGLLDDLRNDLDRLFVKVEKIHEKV
CLIMP-63-CC (Q07065, form named): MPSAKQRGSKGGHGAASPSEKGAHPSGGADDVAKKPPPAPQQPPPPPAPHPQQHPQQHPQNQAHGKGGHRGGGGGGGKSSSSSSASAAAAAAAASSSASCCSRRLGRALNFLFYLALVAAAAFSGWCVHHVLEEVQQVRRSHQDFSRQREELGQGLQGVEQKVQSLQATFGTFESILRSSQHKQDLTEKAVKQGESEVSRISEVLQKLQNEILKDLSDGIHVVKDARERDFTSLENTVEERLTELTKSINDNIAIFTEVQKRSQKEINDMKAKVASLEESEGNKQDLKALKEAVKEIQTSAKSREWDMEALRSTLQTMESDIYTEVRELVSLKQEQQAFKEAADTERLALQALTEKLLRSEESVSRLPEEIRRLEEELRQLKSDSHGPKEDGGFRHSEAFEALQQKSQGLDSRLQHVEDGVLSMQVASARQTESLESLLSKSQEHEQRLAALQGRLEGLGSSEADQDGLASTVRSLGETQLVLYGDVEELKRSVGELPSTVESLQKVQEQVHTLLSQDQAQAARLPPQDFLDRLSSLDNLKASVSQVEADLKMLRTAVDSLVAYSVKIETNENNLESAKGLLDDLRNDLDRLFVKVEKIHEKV
UniProt Q9UIJ5: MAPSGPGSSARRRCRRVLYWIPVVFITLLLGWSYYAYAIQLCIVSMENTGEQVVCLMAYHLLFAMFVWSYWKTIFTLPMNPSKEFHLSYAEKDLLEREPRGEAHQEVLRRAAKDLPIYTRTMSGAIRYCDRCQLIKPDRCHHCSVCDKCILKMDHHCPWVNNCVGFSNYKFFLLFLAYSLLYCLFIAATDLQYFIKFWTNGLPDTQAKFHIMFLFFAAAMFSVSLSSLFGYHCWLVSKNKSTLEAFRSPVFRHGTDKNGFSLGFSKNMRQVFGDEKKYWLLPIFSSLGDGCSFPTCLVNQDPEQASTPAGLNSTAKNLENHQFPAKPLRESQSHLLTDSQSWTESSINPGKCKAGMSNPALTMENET
UniProt O95372: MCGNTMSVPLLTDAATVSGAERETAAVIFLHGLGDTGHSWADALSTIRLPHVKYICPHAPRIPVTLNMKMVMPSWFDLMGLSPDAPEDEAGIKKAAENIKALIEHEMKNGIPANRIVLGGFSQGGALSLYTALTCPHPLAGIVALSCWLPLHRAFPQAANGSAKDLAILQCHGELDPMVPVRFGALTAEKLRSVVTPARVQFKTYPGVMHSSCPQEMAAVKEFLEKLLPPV

The target in another assay is CLIMP-63-CC (human) (UniProt Q07065). The experiment in a line: native gel or EMSA; Blue Native PAGE of samples from cells, Western blot. On the technique in general: In EMSA bound probe runs differently from free probe, usually more slowly.
In assay [4] the target is HA-CLIMP-63 C100A (human) (UniProt Q07065). The assay is described as above.
For assay [5] the target is unchanged. The experiment in a line: co-IP; shCLIMP-63 HeLa cells co-expressing HA-CLIMP-63 and RFP-CLIMP-63 (WT or C100A); with 35S Cys/Met metabolic labelling; Western blot and autoradiography.
For assay [6], the target named is HA-CLIMP-63 WT (human) (UniProt Q07065). Description: native gel or EMSA; Blue Native PAGE of samples from cells, Western blot.
For assay [7] the target is unchanged. Description: co-IP; shCLIMP-63 HeLa cells co-expressing HA-CLIMP-63 and RFP-CLIMP-63 (WT or C100A); with 35S Cys/Met metabolic labelling; Western blot and autoradiography.
Assay [8] concerns the target cytoskeleton-linking membrane protein 63 (CLIMP-63), endogenous (human (endogenous in HeLa and Rpe-1)) (UniProt Q07065). The experiment in a line: native gel or EMSA; Blue Native PAGE of samples from cells, Western blot.
In assay [9] the target is myc-ZDHHC2 (UniProt Q9UIJ5). The experiment in a line: proximity ligation; Duolink-PLA probing endogenous CLIMP-63 in HeLa cells expressing myc-ZDHHC2 or myc-ZDHHC6, or in ZDHHC6 KO cells expressing myc-ZDHHC2; dots per cell area.
Assay [10] addresses T1, myc-ZDHHC6. The assay is described as above.

No constants are given. Whether binding was seen depends on the method and setting. For part of these data: Binding seen in cells or lysates may run through a third protein. Some binding calls cover weakened binding; strength is not graded here. For part of these data: Sequences can lack the tags named with a protein.

“APT2-FLAG S122A (catalytic inactive mutant) (from UniProt O95372 1-231) (enzyme)”: the binding entry in assay [1] is reported as “binds”. “APT2-FLAG WT (acyl protein thioesterase 2) (from UniProt O95372 1-231) (enzyme)”: in [1], the binding result was “binds”.

Regarding “CLIMP-63, co-overexpressed with ZDHHC2 or ZDHHC6 (from UniProt Q07065 1-602)”, the binding entry in the assay with myc-ZDHHC2 [2] and in the assay with myc-ZDHHC6 [3] was “binds” in each case. For CLIMP-63-CC (from UniProt Q07065 1-602), in the assay with CLIMP-63-CC (human), the binding result is given as “binds”. As for “HA-CLIMP-63 C100A (from UniProt Q07065 1-602)”, the binding entry in [4] and in assay [5] was “binds” throughout. For the substance “HA-CLIMP-63 WT (from UniProt Q07065 1-602)”, the binding result with HA-CLIMP-63 WT (human) [6] and with HA-CLIMP-63 WT (human) [7] was “binds” in each case. “cytoskeleton-linking membrane protein 63 (CLIMP-63), endogenous (from UniProt Q07065 1-602)”: the binding result (in assay [8]; with myc-ZDHHC2 [9]; with myc-ZDHHC6 [10]) was “binds” each time.

Values taken from publication PMC9844198.
